Assay [1] addresses T1, SH3YL1 of mouse mesangial cell line MES13 (cell supernatant and cell lysate) (mouse) (UniProt O08641).
T1 sequence (looked up): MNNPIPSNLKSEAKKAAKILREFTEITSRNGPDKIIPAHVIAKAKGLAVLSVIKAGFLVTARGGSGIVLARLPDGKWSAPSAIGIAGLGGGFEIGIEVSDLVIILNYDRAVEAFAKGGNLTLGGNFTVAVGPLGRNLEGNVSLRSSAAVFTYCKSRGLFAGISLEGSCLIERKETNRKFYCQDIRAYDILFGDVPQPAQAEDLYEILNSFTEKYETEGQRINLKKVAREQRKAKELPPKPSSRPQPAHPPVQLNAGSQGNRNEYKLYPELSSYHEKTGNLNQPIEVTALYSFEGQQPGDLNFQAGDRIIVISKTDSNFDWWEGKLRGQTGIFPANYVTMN
The assay is described as follows: immunoprecipitation with hTLR5-FC (FIG. 3).

By UniProt entry, the sequences of proteins in these tests, tags left out. Where a name states a change or a piece, a line headed by the entry shows the natural chain unless it says otherwise.
UniProt O60602: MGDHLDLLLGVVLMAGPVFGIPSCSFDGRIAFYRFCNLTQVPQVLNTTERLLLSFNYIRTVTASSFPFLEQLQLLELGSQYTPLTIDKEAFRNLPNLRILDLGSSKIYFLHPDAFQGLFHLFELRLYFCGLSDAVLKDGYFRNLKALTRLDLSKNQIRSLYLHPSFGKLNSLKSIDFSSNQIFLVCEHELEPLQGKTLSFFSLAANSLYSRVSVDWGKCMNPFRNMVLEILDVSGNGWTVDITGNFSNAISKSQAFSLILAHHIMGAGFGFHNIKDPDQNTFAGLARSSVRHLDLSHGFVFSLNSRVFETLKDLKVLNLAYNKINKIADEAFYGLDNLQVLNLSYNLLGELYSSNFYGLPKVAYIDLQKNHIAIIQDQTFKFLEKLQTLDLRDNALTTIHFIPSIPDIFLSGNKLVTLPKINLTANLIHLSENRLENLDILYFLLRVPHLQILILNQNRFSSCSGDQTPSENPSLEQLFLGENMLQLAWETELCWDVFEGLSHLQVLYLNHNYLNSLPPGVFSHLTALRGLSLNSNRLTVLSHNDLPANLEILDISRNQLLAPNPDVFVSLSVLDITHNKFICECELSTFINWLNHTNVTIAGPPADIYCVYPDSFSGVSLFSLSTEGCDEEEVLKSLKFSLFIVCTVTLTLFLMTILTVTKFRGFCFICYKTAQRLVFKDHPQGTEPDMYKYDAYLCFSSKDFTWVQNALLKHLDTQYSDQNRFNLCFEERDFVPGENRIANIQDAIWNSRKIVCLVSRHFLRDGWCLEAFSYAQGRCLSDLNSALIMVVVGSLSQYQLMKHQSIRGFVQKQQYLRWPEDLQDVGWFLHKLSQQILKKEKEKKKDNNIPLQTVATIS

In assay [2] the target is T1, SH3YL1 of mouse mesangial cell line MES13 (cell supernatant and cell lysate) (mouse). The assay is described as follows: immunoprecipitation of MES13 supernatants and lysates with TLR5-ecto-Fc, immunoblot for SH3YL1.

No constants are given. Whether binding was seen depends on the method and setting. Some binding calls cover weakened binding; strength is not graded here.

In the case of “Soluble ectodomain of human TLR5 fused to an IgG1 Fc domain (hTLR5-FC; Invivogen) (from UniProt O60602 21-639) (Fc fusion)”, the binding result in assay [1] and in assay [2] was “binds” each time.

Source of the values: patent US20260109755A1.
